Measurements as given in PMC4873792.
Results are given in words; binding and its absence hold for the method and conditions named. Binding seen in cells or lysates may run through a third protein. A result given as binding can be weak or reduced; the word gives no strength. Sequences can lack the tags named with a protein.

Molecular target: N-terminally Flag-tagged fly DPP10 (Drosophila melanogaster) (UniProt Q7JUL3)
Experiment: co-IP; HEK293 cells co-transfected with Flag-tagged DPP cDNA (8 ug) and Myc-Kv4.3 cDNA (2 ug); extract in 20 mM Tris-HCl pH 7.4, 0.2 M NaCl, 1% Triton X-100, 1 mM EDTA; precipitation with anti-Flag antibody-conjugated resin, immunoblot

B1: Myc-tagged rat Kv4.3 (protein, UniProt Q62897 1-655)
chain: MAAGVAAWLPFARAAAIGWMPVANCPMPLAPADKNKRQDELIVLNVSGRRFQTWRTTLERYPDTLLGSTEKEFFFNEDTKEYFFDRDPEVFRCVLNFYRTGKLHYPRYECISAYDDELAFYGILPEIIGDCCYEEYKDRKRENAERLMDDNESENNQESMPSLSFRQTMWRAFENPHTSTLALVFYYVTGFFIAVSVITNVVETVPCGTVPGSKELPCGERYSVAFFCLDTACVMIFTVEYLLRLFAAPSRYRFIRSVMSIIDVVAIMPYYIGLVMTNNEDVSGAFVTLRVFRVFRIFKFSRHSQGLRILGYTLKSCASELGFLLFSLTMAIIIFATVMFYAEKGSSASKFTSIPASFWYTIVTMTTLGYGDMVPKTIAGKIFGSICSLSGVLVIALPVPVIVSNFSRIYHQNQRADKRRAQKKARLARIRVAKTGSSNAYLHSKRNGLLNEALELTGTPEEEHMGKTTSLIESQHHHLLHCLEKTTGLSYLVDDPLLSVRTSTIKNHEFIDEQMFEQNCMESSMQNYPSTRSPSLSSHSGLTTTCCSRRSKKTTHLPNSNLPATRLRSMQELSTIHIQGSEQPSLTTSRSSLNLKADDGLRPNCKTSQITTAIISIPTPPALTPEGESRPPPASPGPNTNIPSITSNVVKVSVL
- binding: binds
